PubChem BioAssay AID602196 – INSERM – 2012
Here is an unselected part of about 23,000 deposited reagents. 455 of them (2%) count as active. 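Active includes both protection and sensitisation; some change values fall well beyond the stated -50 to +50 range.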 Not stated in the record: the amount of reagent.

Test: 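Modifiers of cisplatin sensitivity in A549 cells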
Cells: human A549 lung cancer cells
Reagent: siRNA pair against human genes
Duration: 48 h transfection before cisplatin; time from cisplatin to read-out not stated
Treatment: cisplatin at a dose killing half of control-siRNA cells; exact dose and duration not given
Detection: 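Shift in cisplatin death relative to control siRNA, from -50 (all cells die) to +50 (no cells die); siRNAs harmful on their own scored 0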
Direction: two-siRNA summed score (-2 to +2): higher = both siRNAs protect from cisplatin killing; -2 means both sensitise; mean protection from cisplatin (shift in death) and protection from cisplatin (shift in death), siRNA C and protection from cisplatin (shift in death), siRNA D: higher = protection from cisplatin killing
Hit rule: 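Each siRNA scores 0 if harmful alone by LDH or WST-1, otherwise +1 if it reduces and -1 if it increases cisplatin killing; a gene is active when both siRNAs agree (sum +2 or -2)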
Calls: active = both siRNAs shift cisplatin killing the same way; inactive = no consistent shift, or siRNA harmful alone

two-siRNA summed score (-2 to +2) | mean protection from cisplatin (shift in death) (%) | protection from cisplatin (shift in death), siRNA C (%) | protection from cisplatin (shift in death), siRNA D (%) | call | Gene
0 | 2.8 | 11.7 | -6.1 | inactive | LOC402353
1 | 9 | 3.7 | 14.3 | inactive | ZNF311
1 | 6 | -2.1 | 14 | inactive | FAM222B
0 | 0.6 | 4 | -2.9 | inactive | NTM
0 | 10.2 | 8.6 | 11.8 | inactive | LOC441105
1 | 13 | 22.7 | 3.3 | inactive | CCDC50
0 | -5.6 | -0.1 | -11.1 | inactive | LINC00158
0 | 7.2 | 2.8 | 11.5 | inactive | LOC441180
1 | 14.8 | 27.8 | 1.8 | inactive | MGC26597
0 | -7.8 | -4.9 | -10.7 | inactive | OPLAH
0 | 10.4 | 10.8 | 10.1 | inactive | PIK3AP1
0 | 3.3 | -3.7 | 10.3 | inactive | LOC388206
0 | -0.6 | 0 | -1.2 | inactive | NNMT
0 | 12.4 | 6.1 | 18.6 | inactive | LOC388494
-1 | -9.9 | -0.1 | -19.6 | inactive | NUCB1
0 | -6.5 | 3 | -16 | inactive | LOC201475
-2 | -24.8 | -20.6 | -29.1 | active | CACNA1H
0 | 2.4 | -1.5 | 6.3 | inactive | CASK
0 | 25.4 | 27.2 | 23.6 | inactive | SOCS3
0 | 16.9 | 13.1 | 20.6 | inactive | SAMD4B
1 | 8.5 | -7.4 | 24.3 | inactive | SIDT1
0 | 6.1 | 6.7 | 5.4 | inactive | LOC402426
0 | 1.6 | 4.7 | -1.5 | inactive | CAND1
